Experimental data reported in PMC9249863.
No constants are given. Whether binding was seen depends on the method and setting. In cells and extracts the contact can be indirect. Some binding calls cover weakened binding; strength is not graded here. For some assays here: Tags and fused reporters may be left off the sequences shown.

Protein sequences, listed by entry. Tags and fused reporters are not part of them.
UniProt Q92993: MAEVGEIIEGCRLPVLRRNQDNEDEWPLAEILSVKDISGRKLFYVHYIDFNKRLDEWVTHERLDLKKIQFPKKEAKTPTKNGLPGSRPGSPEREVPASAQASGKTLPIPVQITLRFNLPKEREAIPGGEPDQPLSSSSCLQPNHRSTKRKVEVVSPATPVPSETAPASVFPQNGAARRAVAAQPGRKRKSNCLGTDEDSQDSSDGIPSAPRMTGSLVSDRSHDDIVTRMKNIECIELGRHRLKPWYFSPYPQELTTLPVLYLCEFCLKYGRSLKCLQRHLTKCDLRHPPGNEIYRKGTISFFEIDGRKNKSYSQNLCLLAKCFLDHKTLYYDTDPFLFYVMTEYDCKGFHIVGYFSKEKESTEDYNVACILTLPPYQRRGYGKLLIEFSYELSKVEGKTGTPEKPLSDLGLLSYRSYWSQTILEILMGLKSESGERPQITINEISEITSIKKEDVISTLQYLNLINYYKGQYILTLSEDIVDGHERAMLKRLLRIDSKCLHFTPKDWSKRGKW

Experiments:
[1] = target: RFP-TIP60 (WT) (human) (UniProt Q92993); assay: co-IP; TIP60 antibody and protein-A Sepharose beads, overnight at 4 °C; lysates of transfected Cos-1 cells under control or wound-generated conditions; lysis buffer 20 mM Tris pH 8.0, 2 mM EDTA, 150 mM NaCl, 0.5% Triton X 100, 0.1% SDS; Western blot with TIP60, PXR and core histone antibodies
[2] = target: endogenous TIP60 (human (endogenous in HepG2)) (UniProt Q92993); assay: co-IP; endogenous TIP60 precipitated with TIP60 antibody and protein-A Sepharose beads from HepG2 cells, normal and 24 h after wound generation; lysis buffer 20 mM Tris pH 8.0, 2 mM EDTA, 150 mM NaCl, 0.5% Triton X 100, 0.1% SDS; Western blot of the endogenous proteins pulled down

B1: GFP-PXR (WT) (receptor, UniProt O75469 1-434)
chain: MEVRPKESWNHADFVHCEDTESVPGKPSVNADEEVGGPQICRVCGDKATGYHFNVMTCEGCKGFFRRAMKRNARLRCPFRKGACEITRKTRRQCQACRLRKCLESGMKKEMIMSDEAVEERRALIKRKKSERTGTQPLGVQGLTEEQRMMIRELMDAQMKTFDTTFSHFKNFRLPGVLSSGCELPESLQAPSREEAAKWSQVRKDLCSLKVSLQLRGEDGSVWNYKPPADSGGKEIFSLLPHMADMSTYMFKGIISFAKVISYFRDLPIEDQISLLKGAAFELCQLRFNTVFNAETGTWECGRLSYCLEDTAGGFQQLLLEPMLKFHYMLKKLQLHEEEYVLMQAISLFSPDRPGVLQHRVVDQLQEQFAITLKSYIECNRPQPAHRFLFLKIMAMLTELRSINAQHTQRLLRIQDIHPFATPLMQELFGITGS
- binding [1]: binds

B2: endogenous PXR (receptor, UniProt O75469 1-434)
chain: MEVRPKESWNHADFVHCEDTESVPGKPSVNADEEVGGPQICRVCGDKATGYHFNVMTCEGCKGFFRRAMKRNARLRCPFRKGACEITRKTRRQCQACRLRKCLESGMKKEMIMSDEAVEERRALIKRKKSERTGTQPLGVQGLTEEQRMMIRELMDAQMKTFDTTFSHFKNFRLPGVLSSGCELPESLQAPSREEAAKWSQVRKDLCSLKVSLQLRGEDGSVWNYKPPADSGGKEIFSLLPHMADMSTYMFKGIISFAKVISYFRDLPIEDQISLLKGAAFELCQLRFNTVFNAETGTWECGRLSYCLEDTAGGFQQLLLEPMLKFHYMLKKLQLHEEEYVLMQAISLFSPDRPGVLQHRVVDQLQEQFAITLKSYIECNRPQPAHRFLFLKIMAMLTELRSINAQHTQRLLRIQDIHPFATPLMQELFGITGS
- binding [2]: binds
